Consider 17 compounds from the supplement of paper PMC6414424.

SMILES strings stand for the structures. ± gives the standard deviation of the averaged measurements. Some of the results follow.

For this experiment, the system named is APPdp1-6 iPSC-derived neurons. The experiment can be described thus: pThr231Tau/total Tau ratio Z-score vs DMSO vehicle wells; higher = more pThr231Tau relative to total Tau. As to conditions: 5 µM; treatment time 5 days.
As to `C=C[C@H]1CN2CC[C@H]1C[C@@H]2[C@@H](O)c1ccnc2ccccc12` [CINCHONINE    antimalarial    ex Cinchona spp], the “pThr231Tau/total Tau ratio Z-score” value came to 2.79 ± 4.
`CC(Cc1ccc(O)cc1)NCC(O)c1cc(O)cc(O)c1` (configuration not stated) [Prestw-282]: the “pThr231Tau/total Tau ratio Z-score” value came out at 0.889 ± 0.38.
For `C1CCc2nnnn2CC1` [Prestw-162], the “pThr231Tau/total Tau ratio Z-score” value was found to be 0.35 ± 0.9.
`CNC(C)[C@@H]1CC[C@@H](N)[C@@H](O[C@H]2[C@H](O)[C@@H](O[C@H]3OC[C@](C)(O)[C@H](NC)[C@H]3O)[C@H](N)C[C@@H]2N)O1.CN[C@@H]1[C@@H](O)[C@@H](O[C@@H]2[C@@H](O)[C@H](O[C@H]3O[C@H](C(C)N)CC[C@H]3N)[C@@H](N)C[C@H]2N)OC[C@]1(C)O.CN[C@@H]1[C@@H](O)[C@@H](O[C@@H]2[C@@H](O)[C@H](O[C@H]3O[C@H](CN)CC[C@H]3N)[C@@H](N)C[C@H]2N)OC[C@]1(C)O` (some centres not stated): the “pThr231Tau/total Tau ratio Z-score” value amounted to 0.446 ± 1.6.
With `C[C@]12CC[C@@H](O)C[C@@H]1CC[C@@H]1[C@@H]2CC[C@]2(C)C(=O)CC[C@@H]12` [Prestw-697] the figure was 0.695 ± 0.39; with `C[C@]12CC[C@@H](O)C[C@@H]1CC[C@@H]1[C@@H]2CC[C@]2(C)C(=O)CC[C@@H]12` [Prestw-440], 0.491 ± 0.048.
For the compound `C[C@]12CC[C@@H](O)C[C@@H]1CC[C@@H]1[C@@H]2CC[C@]2(C)C(=O)CC[C@@H]12` [Prestw-411], the “pThr231Tau/total Tau ratio Z-score” value amounted to 0.559 ± 1.4.
As to `O=c1[nH]c2ccccc2n1CCCN1CCC(n2c(=O)[nH]c3cc(Cl)ccc32)CC1` [Prestw-340], the “pThr231Tau/total Tau ratio Z-score” value is -0.536 ± 1.4.
For the compound `COP(=S)(OC)Oc1ccc(SC)c(C)c1` [FENTHION    Use: insecticide, ectoparasiticide], the “pThr231Tau/total Tau ratio Z-score” value amounted to 0.693 ± 0.05.
In the case of `CC(C)[N+](C)(CCC(C(N)=O)(c1ccccc1)c1ccccc1)C(C)C` [Prestw-770], the “pThr231Tau/total Tau ratio Z-score” value is -1.19 ± 0.79.
Take `C#C[C@]1(O)CC[C@H]2[C@@H]3CCC4=CC(=O)CC[C@]4(C)[C@H]3CC[C@@]21C` [Prestw-261]: the “pThr231Tau/total Tau ratio Z-score” value was -0.332 ± 0.34.
With `CC(C)CC(N(C)C)C1(c2ccc(Cl)cc2)CCC1` (configuration not stated) [Prestw-1159] the figure was -0.282 ± 0.82; with `Cc1ccc(N=CN(C)C=Nc2ccc(C)cc2C)c(C)c1` [AMITRAZ, scabicide], -0.746 ± 1.1; with `S=C(NC1CCCCC1)N1CCC(c2cnc[nH]2)CC1` [Prestw-922], -0.793 ± 2.
The figure for `CCCC(C)C1(CC)C(=O)N=C(S)NC1=O` (configuration not stated) [THIOPENTAL SODIUM    Therap cat: anesthetic] is -0.606 ± 0.27; for `Cc1cc(O)ccc1Cl` [CHLOROCRESOL    Therap cat:  Topical antiseptic] it is 0.193 ± 1.6; for `CN1[C@@H]2CC[C@H]1CC(OC(=O)[C@H](CO)c1ccccc1)C2` (some centres not stated) [Prestw-233] it is 0.211 ± 2.7.
